Tests used:
PC-3 cells = format: cell-based, human
HepG2 cells = format: cell-based, human
NRK-52E cells = format: cell-based, rat

IC50 (%inhibition ± SD) PC-3 (PC-3 cells): 1.93 ± 0.28%
IC50 (%inhibition ± SD) HepG2 (HepG2 cells): 3.87 ± 0.22%
IC50 (%inhibition ± SD) NRK-52E (NRK-52E cells): 3.21 ± 0.67%
Compound: COc1cc2c(c(OC)c1OC)-c1ccc(OC)c(=O)cc1[C@@H](NC(C)=O)CC2 [Colchicine, colchicine, reference compound]
